From the supplement of paper PMC10849652
This is one part of the list.

Chains of the proteins cited; added tags and fusions are not shown. Lines headed by an entry give the natural chain unless they say otherwise; changes in a name come on top.
UniProt Q96MY1: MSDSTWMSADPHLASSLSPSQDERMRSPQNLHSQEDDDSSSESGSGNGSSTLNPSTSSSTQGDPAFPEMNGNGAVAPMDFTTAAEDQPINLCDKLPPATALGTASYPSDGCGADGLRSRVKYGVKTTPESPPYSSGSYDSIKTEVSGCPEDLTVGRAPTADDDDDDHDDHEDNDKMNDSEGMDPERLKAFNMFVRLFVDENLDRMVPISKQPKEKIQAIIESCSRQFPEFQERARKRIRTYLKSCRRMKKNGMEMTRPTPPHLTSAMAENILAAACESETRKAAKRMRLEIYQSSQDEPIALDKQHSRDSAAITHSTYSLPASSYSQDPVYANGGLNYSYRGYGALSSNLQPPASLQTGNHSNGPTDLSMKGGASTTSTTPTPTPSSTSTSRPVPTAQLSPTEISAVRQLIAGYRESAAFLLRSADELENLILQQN
UniProt Q96T66: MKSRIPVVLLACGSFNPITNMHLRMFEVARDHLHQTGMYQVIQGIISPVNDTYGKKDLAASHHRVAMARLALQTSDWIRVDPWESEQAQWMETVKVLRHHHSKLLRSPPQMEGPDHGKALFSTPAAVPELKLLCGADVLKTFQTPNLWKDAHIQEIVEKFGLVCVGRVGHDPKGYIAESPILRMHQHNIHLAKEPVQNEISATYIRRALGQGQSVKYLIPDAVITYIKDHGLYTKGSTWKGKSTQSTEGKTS
UniProt Q9Y5A7: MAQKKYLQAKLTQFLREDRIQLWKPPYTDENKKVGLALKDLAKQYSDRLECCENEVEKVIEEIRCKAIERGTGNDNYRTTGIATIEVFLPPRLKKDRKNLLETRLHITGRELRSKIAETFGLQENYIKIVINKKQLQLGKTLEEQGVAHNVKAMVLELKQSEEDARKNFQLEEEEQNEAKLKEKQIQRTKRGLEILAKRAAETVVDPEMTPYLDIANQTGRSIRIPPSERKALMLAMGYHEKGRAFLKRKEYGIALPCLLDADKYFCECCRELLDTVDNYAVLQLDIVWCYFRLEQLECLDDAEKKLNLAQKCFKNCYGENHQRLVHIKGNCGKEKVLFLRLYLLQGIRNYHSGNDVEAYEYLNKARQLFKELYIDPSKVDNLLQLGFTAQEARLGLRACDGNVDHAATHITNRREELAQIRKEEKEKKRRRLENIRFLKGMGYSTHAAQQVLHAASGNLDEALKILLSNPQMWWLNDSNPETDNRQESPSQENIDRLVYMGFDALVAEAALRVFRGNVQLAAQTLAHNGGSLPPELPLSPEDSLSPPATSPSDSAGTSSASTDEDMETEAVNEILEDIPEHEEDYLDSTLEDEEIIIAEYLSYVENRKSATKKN
UniProt O96028: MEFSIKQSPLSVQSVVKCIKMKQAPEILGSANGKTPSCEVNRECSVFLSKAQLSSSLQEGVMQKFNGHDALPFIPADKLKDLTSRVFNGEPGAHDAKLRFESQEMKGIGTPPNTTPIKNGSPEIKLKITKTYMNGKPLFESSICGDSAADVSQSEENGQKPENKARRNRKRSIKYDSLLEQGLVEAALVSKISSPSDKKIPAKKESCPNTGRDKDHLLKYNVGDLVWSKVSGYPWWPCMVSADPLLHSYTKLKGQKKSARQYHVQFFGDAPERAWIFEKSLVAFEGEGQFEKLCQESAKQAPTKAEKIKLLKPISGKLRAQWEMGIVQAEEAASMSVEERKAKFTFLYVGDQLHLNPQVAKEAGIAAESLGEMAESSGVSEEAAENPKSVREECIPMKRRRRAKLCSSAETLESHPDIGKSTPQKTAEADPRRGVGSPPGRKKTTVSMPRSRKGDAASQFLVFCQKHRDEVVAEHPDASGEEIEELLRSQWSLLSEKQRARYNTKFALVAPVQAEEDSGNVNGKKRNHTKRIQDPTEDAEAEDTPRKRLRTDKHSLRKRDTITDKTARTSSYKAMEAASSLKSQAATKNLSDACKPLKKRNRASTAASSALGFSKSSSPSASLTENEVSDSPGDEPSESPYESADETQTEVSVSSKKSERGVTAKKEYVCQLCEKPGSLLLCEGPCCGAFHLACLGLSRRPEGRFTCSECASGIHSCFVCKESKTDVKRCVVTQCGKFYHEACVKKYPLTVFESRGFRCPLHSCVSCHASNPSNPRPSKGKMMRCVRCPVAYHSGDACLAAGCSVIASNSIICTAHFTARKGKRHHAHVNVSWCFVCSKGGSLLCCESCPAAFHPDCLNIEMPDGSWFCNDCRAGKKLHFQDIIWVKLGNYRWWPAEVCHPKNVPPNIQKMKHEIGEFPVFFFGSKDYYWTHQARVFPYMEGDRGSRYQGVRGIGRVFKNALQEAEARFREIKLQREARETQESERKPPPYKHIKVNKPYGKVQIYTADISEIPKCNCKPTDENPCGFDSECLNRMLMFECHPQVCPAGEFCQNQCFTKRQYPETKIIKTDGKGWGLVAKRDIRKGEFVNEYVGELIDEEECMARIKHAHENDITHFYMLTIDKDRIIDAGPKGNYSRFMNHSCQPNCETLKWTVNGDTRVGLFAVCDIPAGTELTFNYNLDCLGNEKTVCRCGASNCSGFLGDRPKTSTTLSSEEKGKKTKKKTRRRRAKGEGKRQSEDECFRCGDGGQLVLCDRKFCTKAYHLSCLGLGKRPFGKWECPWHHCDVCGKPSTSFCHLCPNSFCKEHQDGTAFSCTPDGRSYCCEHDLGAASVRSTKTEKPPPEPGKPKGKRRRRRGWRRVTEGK
UniProt Q9NQ35: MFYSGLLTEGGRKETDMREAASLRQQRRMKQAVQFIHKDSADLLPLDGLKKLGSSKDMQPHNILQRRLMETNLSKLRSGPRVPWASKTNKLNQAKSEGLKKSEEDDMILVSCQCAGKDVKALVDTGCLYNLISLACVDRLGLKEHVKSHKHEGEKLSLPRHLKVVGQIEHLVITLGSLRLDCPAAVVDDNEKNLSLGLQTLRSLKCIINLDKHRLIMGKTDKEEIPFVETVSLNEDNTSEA
UniProt Q9GZP1: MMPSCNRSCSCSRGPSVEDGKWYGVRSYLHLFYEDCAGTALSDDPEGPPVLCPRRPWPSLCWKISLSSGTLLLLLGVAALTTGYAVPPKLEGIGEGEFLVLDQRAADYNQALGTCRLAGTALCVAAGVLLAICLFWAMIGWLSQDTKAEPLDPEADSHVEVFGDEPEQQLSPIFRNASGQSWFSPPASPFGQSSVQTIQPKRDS
UniProt P55055, whole entry, looked up: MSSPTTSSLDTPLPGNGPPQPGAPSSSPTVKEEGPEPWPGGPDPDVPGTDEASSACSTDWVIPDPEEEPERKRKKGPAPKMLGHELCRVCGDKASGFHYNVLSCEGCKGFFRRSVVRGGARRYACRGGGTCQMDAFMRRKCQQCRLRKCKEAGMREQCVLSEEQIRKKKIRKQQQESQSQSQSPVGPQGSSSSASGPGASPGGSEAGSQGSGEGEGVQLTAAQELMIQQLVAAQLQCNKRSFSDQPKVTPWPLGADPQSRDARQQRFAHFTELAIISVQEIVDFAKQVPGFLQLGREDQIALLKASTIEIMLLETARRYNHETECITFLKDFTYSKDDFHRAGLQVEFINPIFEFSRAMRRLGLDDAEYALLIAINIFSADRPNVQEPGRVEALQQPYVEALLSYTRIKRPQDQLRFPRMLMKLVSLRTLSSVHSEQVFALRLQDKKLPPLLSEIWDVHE
UniProt Q92686, whole entry, looked up: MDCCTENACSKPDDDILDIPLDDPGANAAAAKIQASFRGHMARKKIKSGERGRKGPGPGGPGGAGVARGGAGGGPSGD
UniProt Q9BZ95: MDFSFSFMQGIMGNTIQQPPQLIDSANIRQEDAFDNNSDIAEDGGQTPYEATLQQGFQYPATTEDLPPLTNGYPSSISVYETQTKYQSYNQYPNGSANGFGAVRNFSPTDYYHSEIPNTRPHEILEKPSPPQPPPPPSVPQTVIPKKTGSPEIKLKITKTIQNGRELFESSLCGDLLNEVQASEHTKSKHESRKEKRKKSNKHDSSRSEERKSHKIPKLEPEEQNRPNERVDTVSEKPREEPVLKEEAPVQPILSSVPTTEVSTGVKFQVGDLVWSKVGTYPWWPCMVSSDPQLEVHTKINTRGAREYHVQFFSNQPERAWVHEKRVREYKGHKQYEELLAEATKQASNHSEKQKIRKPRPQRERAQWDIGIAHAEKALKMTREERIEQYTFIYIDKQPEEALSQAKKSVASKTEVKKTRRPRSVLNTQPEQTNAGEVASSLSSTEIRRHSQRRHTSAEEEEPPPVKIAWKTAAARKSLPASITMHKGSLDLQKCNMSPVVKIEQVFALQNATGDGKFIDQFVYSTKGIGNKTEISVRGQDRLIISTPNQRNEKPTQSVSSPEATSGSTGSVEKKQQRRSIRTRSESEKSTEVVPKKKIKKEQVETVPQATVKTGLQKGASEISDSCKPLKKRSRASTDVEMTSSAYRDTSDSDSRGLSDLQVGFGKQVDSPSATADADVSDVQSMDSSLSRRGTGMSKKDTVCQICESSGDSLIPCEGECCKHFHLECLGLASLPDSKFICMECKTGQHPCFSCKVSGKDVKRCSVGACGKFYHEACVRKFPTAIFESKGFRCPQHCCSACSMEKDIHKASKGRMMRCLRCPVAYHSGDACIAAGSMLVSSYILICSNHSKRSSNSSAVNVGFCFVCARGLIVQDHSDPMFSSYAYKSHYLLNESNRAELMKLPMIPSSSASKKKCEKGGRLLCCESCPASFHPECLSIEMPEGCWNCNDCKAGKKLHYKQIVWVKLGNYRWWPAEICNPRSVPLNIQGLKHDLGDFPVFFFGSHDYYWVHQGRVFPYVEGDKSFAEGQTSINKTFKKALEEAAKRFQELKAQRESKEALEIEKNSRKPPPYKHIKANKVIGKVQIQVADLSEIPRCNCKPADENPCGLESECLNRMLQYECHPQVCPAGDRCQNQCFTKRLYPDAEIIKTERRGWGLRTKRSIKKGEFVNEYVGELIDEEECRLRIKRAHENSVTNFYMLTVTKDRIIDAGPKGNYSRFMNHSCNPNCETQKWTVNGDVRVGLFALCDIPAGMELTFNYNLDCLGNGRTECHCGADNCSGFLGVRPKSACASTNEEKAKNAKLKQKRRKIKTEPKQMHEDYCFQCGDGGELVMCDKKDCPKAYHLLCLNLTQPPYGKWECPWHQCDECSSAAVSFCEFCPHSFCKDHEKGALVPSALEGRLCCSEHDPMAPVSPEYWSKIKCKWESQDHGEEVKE
UniProt Q9UK39: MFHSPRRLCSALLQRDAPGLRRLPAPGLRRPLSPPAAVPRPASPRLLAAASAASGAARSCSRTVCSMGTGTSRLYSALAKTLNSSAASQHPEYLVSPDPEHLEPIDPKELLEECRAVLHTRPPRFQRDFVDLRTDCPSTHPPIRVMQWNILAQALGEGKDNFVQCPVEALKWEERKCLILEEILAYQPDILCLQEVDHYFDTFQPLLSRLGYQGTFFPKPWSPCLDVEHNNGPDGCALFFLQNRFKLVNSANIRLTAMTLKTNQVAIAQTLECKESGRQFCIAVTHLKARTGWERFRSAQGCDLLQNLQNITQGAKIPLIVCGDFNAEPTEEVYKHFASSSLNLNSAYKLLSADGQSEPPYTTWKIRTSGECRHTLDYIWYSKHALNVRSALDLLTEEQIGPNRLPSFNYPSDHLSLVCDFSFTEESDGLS
UniProt O95848: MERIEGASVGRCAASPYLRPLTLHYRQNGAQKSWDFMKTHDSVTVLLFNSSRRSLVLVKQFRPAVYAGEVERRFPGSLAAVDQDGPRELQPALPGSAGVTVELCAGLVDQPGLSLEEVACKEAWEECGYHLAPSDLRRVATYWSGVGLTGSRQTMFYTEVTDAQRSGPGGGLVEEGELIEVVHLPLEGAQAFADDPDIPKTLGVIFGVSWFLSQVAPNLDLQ
UniProt Q9UHK0: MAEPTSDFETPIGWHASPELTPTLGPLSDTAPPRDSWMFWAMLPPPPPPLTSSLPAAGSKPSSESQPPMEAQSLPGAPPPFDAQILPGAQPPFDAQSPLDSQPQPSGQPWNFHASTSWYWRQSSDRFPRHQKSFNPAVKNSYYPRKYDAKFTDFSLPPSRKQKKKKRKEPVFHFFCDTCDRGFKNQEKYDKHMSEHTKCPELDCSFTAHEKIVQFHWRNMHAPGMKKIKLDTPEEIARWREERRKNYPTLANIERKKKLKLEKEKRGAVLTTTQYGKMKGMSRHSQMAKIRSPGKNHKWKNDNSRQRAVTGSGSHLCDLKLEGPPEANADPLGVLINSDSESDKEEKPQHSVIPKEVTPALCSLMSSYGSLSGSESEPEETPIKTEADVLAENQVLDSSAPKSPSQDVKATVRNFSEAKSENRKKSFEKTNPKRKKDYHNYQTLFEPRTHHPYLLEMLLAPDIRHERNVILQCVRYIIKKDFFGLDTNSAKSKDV

How the values were obtained:
Experiment in all cases: log2 fold change, soluble protein after heating vs DMSO (PISA); higher = thermal stabilisation; K562 lysate, 10 uM; active = over 0.2 and 3.5 SD of the protein, either way, in both replicates (recomputed)
[1] = compound: C/C(=N\NC(=O)C1=CC(=CC=C1)S(=O)(=O)N2CCOCC2)/C3=C(C=CC(=C3)Cl)O
Method in brief: (§1)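 Log-two fold change in thermal stability relative to solvent controls is reported from duplicates. For each sample, crude K562 extract from dounce-homogenised pellets in PBS pH 7.4 with 1 mM MgCl2, at 1 mg/mL protein, was treated with 10 μM compound for 30 min. Aliquots heated for 3 min across 48°C-58°C were pooled, brought to 0.5% NP-40 at 4°C and cleared at 21,000xg for 90 min. The supernatant was quantified by TMTpro 16plex LC-MS/MS with channel sums equalised.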

[2] = compound: C1=CC2=C(C=CC(=C2)/C=C\3/C(=O)NC(=NCC4=CC=CS4)S3)N=C1
Method in brief: as §1

[3] = compound: C1=CC=C(C=C1)C2=NC(=C(N2)C3=CC=NC=C3)C4=CC(=C(C=C4)Cl)O
Method in brief: as §1

[4] = compound: C1=CC=C2C(=C1)C3=NNC4=CC=CC(=C43)C2=O
Method in brief: as §1

[5] = compound: C1CCN(C1)C(=O)NC2=CC=CC(=C2)NC3=NC=C(C(=N3)NCCC4=CN=CN4)Br
Method in brief: as §1

[6] = compound: C1CN(CCC1(CC2=CC=C(C=C2)Cl)N)C3=NC=NC4=C3C=CN4
Method in brief: as §1

[7] = compound: C1COCCN1CCN2C3=CC=CC=C3N=C2NC(=O)C4=CC(=CC=C4)[N+](=O)[O-] [IRAK-1-4 Inhibitor I]
Method in brief: as §1

[8] = compound: CC(C)(C)Cn1c(N)nc2ccc(-c3[nH]c(C(C)(C)C)nc3-c3ccc(F)cc3)nc21 [ralimetinib]
Method in brief: as §1

[9] = compound: CC(C)(O)CC(=O)NCCn1ccc2ncnc(Nc3ccc(Oc4cccc(C(F)(F)F)c4)c(Cl)c3)c21
Method in brief: as §1

[10] = compound: CC1=C(C2=C(C=C1)C(=O)C3=CC=CC=C3N2CCCN)C
Method in brief: as §1

[11] = compound: CC1=C(C=C(C=C1)NC(=O)C2=CC(=CC=C2)C(C)(C)C#N)NC3=CC4=C(C=C3)N=CN(C4=O)C
Method in brief: as §1

[12] = compound: CC1=C(C=C(C=C1)NC(=O)C2=CC(=CC=C2)N(C)C)NC(=O)C3=CC=C(C=C3)O
Method in brief: as §1

[13] = compound: C#Cc1cccc(Nc2ncnc3cc(OCCOC)c(OCCOC)cc23)c1 [erlotinib]
Method in brief: as §1

[14] = compound: C1=CC(=CC=C1C2=NC3=C(N2)C=C(C=C3)C(=O)N)OC4=CC=C(C=C4)Cl
Method in brief: as §1

[15] = compound: CC(=O)c1cnc2ccc(-c3cc(Cl)c(O)c(Cl)c3)nc2c1N[C@H]1CC[C@H](CN(C)C)CC1
Method in brief: as §1

[16] = compound: CC(C)C1=C2N=C(C=C(N2N=C1)NCC3=CC=CC=C3)NCCCCCCN
Method in brief: as §1

[17] = compound: CC1=CC=C(C=C1)SC2=C3C=C(SC3=CN=C2)C(=O)N
Method in brief: as §1

[18] = compound: CC1=C(C(CC(=O)N1)C2=CC=C(C=C2)C(F)(F)F)C(=O)NC3=C(C=C4C(=C3)C=NN4)F
Method in brief: as §1

[19] = compound: C1=CC2=NC=CN=C2C=C1/C=C/3\C(=O)NC(=O)S3
Method in brief: as §1

[20] = compound: C=CC(=O)N1CCC[C@@H](n2nc(-c3ccc(Oc4ccccc4)cc3)c3c(N)ncnc32)C1 [ibrutinib]
Method in brief: as §1

Measured: log2 fold change

NTRK1 (UniProt P04629)
inactive: [1] 0.105 | [2] -0.305 | [3] -0.087 | [4] 0.082 | [5] 0.102 | [6] -0.299 | [7] -0.011 | [8] -0.047 | [9] 0.069 | [10] -0.085 | [11] -0.045 | [12] 0.078

NOL4L (UniProt Q96MY1)
inactive: [13] 0.003 | [14] -0.067 | [3] 0.05 | [5] 0.129 | [6] -0.023 | [7] 0.02 | [15] -0.043 | [8] 0.088 | [9] 0.028 | [16] 0.031 | [10] 0.008 | [12] -0.046 | [17] 0.025

NSDHL (UniProt C9JDR0)
inactive: [15] 0.047 | [18] 0.031 | [17] 0.038

NMNAT3 (UniProt Q96T66)
inactive: [19] 0.087 | [20] 0.023

NR2C1 (UniProt P13056)
inactive: [1] -0.09 | [2] -0.055 | [19] 0.113 | [4] -0.002 | [20] -0.019 | [18] -0.039 | [11] -0.195

NUB1 isoform 2 (UniProt Q9Y5A7)
inactive: [11] 0.075

NPLOC4 (UniProt I3L3I1)
inactive: [19] -0.029 | [5] -0.128 | [6] 0.046 | [20] -0.022 | [10] -0.169 | [11] 0.447

NSD2 (UniProt O96028)
inactive: [1] 0.008 | [2] 0.225 | [19] 0.036 | [3] -0.02 | [4] -0.003 | [5] 0.15 | [6] -0.102 | [7] -0.233 | [20] 0.184 | [15] 0.084 | [8] -0.144 | [9] -0.155 | [18] -0.238 | [11] 0.065 | [12] 0.128 | [17] 0.059

NRIP3 (UniProt Q9NQ35)
inactive: [1] 0.048 | [2] 0.29 | [4] -0.199 | [5] 0.046 | [6] 0.099

NRSN2 (UniProt Q9GZP1)
inactive: [10] 0.02

NR1H2 (UniProt P55055)
inactive: [3] -0.1 | [7] -0.077 | [8] 0.085 | [9] 0.041 | [12] -0.069

NT5C (UniProt J3KSX6)
inactive: [19] 0.039 | [20] -0.07 | [15] 0.072 | [17] 0.018

NRGN (UniProt Q92686)
inactive: [19] 0.08 | [20] 0.011 | [18] 0.125 | [10] 0.037 | [11] 0.022

NSD3 (UniProt Q9BZ95)
inactive: [19] -0.404 | [3] -0.152 | [5] -0.011 | [6] 0.005 | [7] 0.071 | [20] 0 | [8] -0.066 | [9] 0.036 | [18] 0.055 | [10] 0.144 | [11] 0.043 | [12] 0.075

NME3 (UniProt H3BPR2)
inactive: [15] 0.254 | [17] -0.097

NRIP1 (UniProt P48552)
inactive: [13] 0.031 | [14] 0 | [19] -0.033 | [3] 0.024 | [7] 0.114 | [20] -0.018 | [15] -0.055 | [8] -0.05 | [9] -0.165 | [16] -0.007 | [18] 0.093 | [10] -0.217 | [11] 0.175 | [12] -0.005 | [17] -0.102

NOCT (UniProt Q9UK39)
inactive: [13] -0.129 | [14] 0.061 | [3] 0.1 | [5] -0.134 | [6] 0.06 | [7] 0.007 | [15] 0.001 | [8] 0.068 | [9] -0.06 | [16] 0.014 | [18] 0.004 | [10] 0.114 | [11] -0.012 | [12] -0.066 | [17] 0.064

NUDT14 (UniProt O95848)
inactive: [13] 0.161 | [14] -0.186 | [19] -0.106 | [3] -0.182 | [7] 0.029 | [20] 0.008 | [15] -0.022 | [8] -0.214 | [9] -0.119 | [16] 0.178 | [10] -0.068 | [11] -0.042 | [12] -0.024 | [17] -0.09

NUFIP1 (UniProt Q9UHK0)
inactive: [19] 0.014 | [3] 0.068 | [5] 0.084 | [6] -0.033 | [7] -0.047 | [20] 0.093 | [8] 0.299 | [9] -0.034 | [18] 0.036 | [10] 0.007 | [11] 0.085 | [12] 0.033

NTMT1 (UniProt S4R338)
inactive: [15] -0.182 | [17] 0.058

NOMO3 (UniProt P69849)
inactive: [13] 0.035 | [14] -0.045 | [3] -0.004 | [7] 0.001 | [15] -0.15 | [8] -0.032 | [9] 0.019 | [16] 0.015 | [18] -0.009 | [10] 0.033 | [11] 0.04 | [12] 0.009 | [17] -0.062
